{
  "source": "paper PMC7819943",
  "about": "“Rice protein-binding microarrays: a tool to detect cis-acting elements near promoter regions in rice”",
  "note": "Some of the results follow.",
  "data": [
    {"target": "T1, OsSMF1 (Oryza sativa, UniProt Q6ZLB0 1-436)", "T1 sequence": "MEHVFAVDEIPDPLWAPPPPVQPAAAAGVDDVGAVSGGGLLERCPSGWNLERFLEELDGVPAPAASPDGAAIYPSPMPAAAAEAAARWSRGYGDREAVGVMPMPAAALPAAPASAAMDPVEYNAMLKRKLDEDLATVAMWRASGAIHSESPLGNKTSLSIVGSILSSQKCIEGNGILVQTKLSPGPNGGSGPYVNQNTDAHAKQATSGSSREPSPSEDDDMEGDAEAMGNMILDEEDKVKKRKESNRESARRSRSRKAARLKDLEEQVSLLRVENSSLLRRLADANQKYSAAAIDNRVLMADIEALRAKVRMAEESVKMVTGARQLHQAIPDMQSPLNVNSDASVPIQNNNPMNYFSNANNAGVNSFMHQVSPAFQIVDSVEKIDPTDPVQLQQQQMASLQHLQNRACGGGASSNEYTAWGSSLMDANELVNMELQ", "test": "protein-binding microarray (RPBM); PBS, 2% BSA, 51.3 ng/ul salmon testes DNA, 50 uM zinc acetate, 200 nM TF, 25 C, 1 h; high values mean tight binding", "details": "protein: recombinant; tags: N-terminal polyhistidine and DsRed monomer fusion (pET32a); chain copies: 2; label: CyDye5-dUTP incorporated in the synthesized complementary strand; 3' TTTTT single-stranded linker to array surface; dsDNA, one strand shown", "method_in_brief": "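For the binding signal, per-feature fluorescence intensity was read in arbitrary units on an Axon 4000B scanner. Before scanning, a 2% BSA-blocked custom Agilent array made double-stranded with Cy5-dUTP was washed after 1 h at 25 °C with 200 nM protein and 50 µM zinc acetate. The proteins were Ni–NTA-purified transcription factors with N-terminal polyhistidine and DsRed fusions, expressed in E. coli BL21-CodonPlus.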", "values": [
      {"sequence": "TGCAATAATGCATTCTTAACGTCGAGTTGATGAATCAGCCCGGAGTCACCTAGTGCAG", "binding signal": "3820 fluorescence intensity (a.u.)"},
      {"sequence": "ACATGTAGCACGAGCCGTTCCTTGTGCCACCCAGACGAATCGGAGTCACCTAGTGCAG", "binding signal": "3420 fluorescence intensity (a.u.)"},
      {"sequence": "AGTTTTCTCCGAAAACAGATGACTGAGATTTGTTTAGGTACGGAGTCACCTAGTGCAG", "binding signal": "22800 fluorescence intensity (a.u.)"},
      {"sequence": "CACTACCTGCATCTCCACGTCGCCGTCTCCATCAGATCATCGGAGTCACCTAGTGCAG", "binding signal": "4830 fluorescence intensity (a.u.)"},
      {"sequence": "AGACTCCACTGATTATCAGCCTCCTACCCCTACCTGTCAACGGAGTCACCTAGTGCAG", "binding signal": "3240 fluorescence intensity (a.u.)"},
      {"sequence": "CTGGGCTTAATAATCTTCTTCCTCTTGTTCTTCTATAAGTCGGAGTCACCTAGTGCAG", "binding signal": "3310 fluorescence intensity (a.u.)"},
      {"sequence": "GCCGCCACGCGTCGCAGTGCCTCCTCCACCTTCCTCGTCACGGAGTCACCTAGTGCAG", "binding signal": "5530 fluorescence intensity (a.u.)"},
      {"sequence": "ATCTGAACACTGAATTATCGCCACGGATTATTTGGTCCATCGGAGTCACCTAGTGCAG", "binding signal": "3190 fluorescence intensity (a.u.)"},
      {"sequence": "CTATCTTCCGTTCCACCCGCTCCCGTTGAGCTCAATTATCCGGAGTCACCTAGTGCAG", "binding signal": "4720 fluorescence intensity (a.u.)"},
      {"sequence": "AATAAGTTGTAGACTGACTAATCACCCCTCTTCTCCCGAACGGAGTCACCTAGTGCAG", "binding signal": "3510 fluorescence intensity (a.u.)"},
      {"sequence": "ATTTTGATCATAAAGCTTGATCATTTATCATATTTAAAAGCGGAGTCACCTAGTGCAG", "binding signal": "19400 fluorescence intensity (a.u.)"},
      {"sequence": "CTTAACGGCCTGCTGATAGCATAATGAGCCTTAGAAAATTCGGAGTCACCTAGTGCAG", "binding signal": "3880 fluorescence intensity (a.u.)"},
      {"sequence": "TGCAAAGTTTATACACGTGTATATAAAGTTTGTATATGTGCGGAGTCACCTAGTGCAG", "binding signal": "12900 fluorescence intensity (a.u.)"},
      {"sequence": "CGACCGAGCGAGGAGGGGCGGCGCCGTTCTGCTGGGCATCCGGAGTCACCTAGTGCAG", "binding signal": "7440 fluorescence intensity (a.u.)"},
      {"sequence": "TTCATCTGTTTAGATCTCAGTGTGTTTTCGAAATTTTAACCGGAGTCACCTAGTGCAG", "binding signal": "30800 fluorescence intensity (a.u.)"},
      {"sequence": "AGTACTACCTTCATCTCTGACTCATAGCAATATACATACACGGAGTCACCTAGTGCAG", "binding signal": "5390 fluorescence intensity (a.u.)"},
      {"sequence": "AGGCCAACAACAGCCAAATGCCACCTAGGGTGTTGCTTGCCGGAGTCACCTAGTGCAG", "binding signal": "4150 fluorescence intensity (a.u.)"},
      {"sequence": "CCATGGCCTCGCATGAGTCACTGACGTGTGTGGTGGTGCACGGAGTCACCTAGTGCAG", "binding signal": "6580 fluorescence intensity (a.u.)"},
      {"sequence": "TAGGTCTTCGTCCCACGTGGCATTGACGTGGCGCTTACGCCGGAGTCACCTAGTGCAG", "binding signal": "30000 fluorescence intensity (a.u.)"},
      {"sequence": "AATGCTGACACGATTGCCACGTGTATGCTACTTAGGACAACGGAGTCACCTAGTGCAG", "binding signal": "31000 fluorescence intensity (a.u.)"},
      {"sequence": "CGGCGGTGACGGCAGCTGCAGGGGCCACGCGCCCACGCCCCGGAGTCACCTAGTGCAG", "binding signal": "4090 fluorescence intensity (a.u.)"},
      {"sequence": "AATCACTCCGCGTCATCTTGTTGTCTACTCCATCATATGCCGGAGTCACCTAGTGCAG", "binding signal": "11000 fluorescence intensity (a.u.)"},
      {"sequence": "TCGCCACCAACTCCGAGCGACAACCGGTACTTTCTCCTTCCGGAGTCACCTAGTGCAG", "binding signal": "3150 fluorescence intensity (a.u.)"},
      {"sequence": "CTGATACGTCCCACTAGAAACAAGCACGTGTATATCATCGCGGAGTCACCTAGTGCAG", "binding signal": "3390 fluorescence intensity (a.u.)"},
      {"sequence": "CCAACATATATATTTATATTATGTACACACACATATATAGCGGAGTCACCTAGTGCAG", "binding signal": "4620 fluorescence intensity (a.u.)"},
      {"sequence": "CCATGTCCACACAGCACGGGTTGGCTACTTGGCTGGTTCTCGGAGTCACCTAGTGCAG", "binding signal": "3450 fluorescence intensity (a.u.)"},
      {"sequence": "AGTTGCTGTTGTTTAAATTGTGTGTGACAGCAGACAGCTACGGAGTCACCTAGTGCAG", "binding signal": "3180 fluorescence intensity (a.u.)"},
      {"sequence": "TGTAGTGGCTTTGCATTGACGTGTAATGCAGTGCACACTGCGGAGTCACCTAGTGCAG", "binding signal": "10300 fluorescence intensity (a.u.)"},
      {"sequence": "GTTTCTTGGTCGTGGGGTCGAGGAGGTGGTGGGTGGTGGTCGGAGTCACCTAGTGCAG", "binding signal": "4370 fluorescence intensity (a.u.)"},
      {"sequence": "CATCTGTTTACTTTGTCTTGTTAACTCTCTTGCCACATCACGGAGTCACCTAGTGCAG", "binding signal": "4730 fluorescence intensity (a.u.)"},
      {"sequence": "GGTGTGGATCAGCGGAGAAAAGCTACCACGTCAACTGAATCGGAGTCACCTAGTGCAG", "binding signal": "5180 fluorescence intensity (a.u.)"},
      {"sequence": "AAACATCGGGAAGGGACTGAGCCACGCTATACTCCCAACACGGAGTCACCTAGTGCAG", "binding signal": "23900 fluorescence intensity (a.u.)"},
      {"sequence": "GGGGAGCTTTGCCCCTGCGCACACTTGTCACGCTCACGCACGGAGTCACCTAGTGCAG", "binding signal": "3220 fluorescence intensity (a.u.)"},
      {"sequence": "GAGTGCGCTATTTTCTGGATGGAGGACGTGACAGCATATCCGGAGTCACCTAGTGCAG", "binding signal": "3760 fluorescence intensity (a.u.)"},
      {"sequence": "CGTCTGCTGTAAACGCGGCTATCACGGCTGCTGCGTGTCTCGGAGTCACCTAGTGCAG", "binding signal": "3820 fluorescence intensity (a.u.)"},
      {"sequence": "CCACATGTCAGTGACTGGGCCTTGCTCGATATATCCGCGCCGGAGTCACCTAGTGCAG", "binding signal": "3690 fluorescence intensity (a.u.)"},
      {"sequence": "ATAGATATATTGACATGTCACATCCTTATTGAACTCGATACGGAGTCACCTAGTGCAG", "binding signal": "5890 fluorescence intensity (a.u.)"},
      {"sequence": "CGGCTATTGTGCTGACGGCAAGCACCGGTTTGTCGTCTACCGGAGTCACCTAGTGCAG", "binding signal": "3690 fluorescence intensity (a.u.)"},
      {"sequence": "AGACATTTTGCCAGATAATTGGCATGCATGCAGCCTACCACGGAGTCACCTAGTGCAG", "binding signal": "3200 fluorescence intensity (a.u.)"},
      {"sequence": "AGGCAAGCACGAGAGTCACAGATACATATCCCCTTTAATCCGGAGTCACCTAGTGCAG", "binding signal": "35600 fluorescence intensity (a.u.)"},
      {"sequence": "GTATAAATTAGATGTTATCCATCGTCATAGCCATCGAAATCGGAGTCACCTAGTGCAG", "binding signal": "3340 fluorescence intensity (a.u.)"},
      {"sequence": "CACCTCACCTGGAGCCCACCTGCCATTGACTCCGCCGCGCCGGAGTCACCTAGTGCAG", "binding signal": "4760 fluorescence intensity (a.u.)"}
    ]}
  ]
}
